Assay results: the supplement of paper PMC4604168 (melanoma cell lines)
This is one part of the list. Many values rest on one well or one pass, so single values are uncertain.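 Imaging used 1,536-well plates; nuclei positive for cleaved PARP by antibody were divided by total DNA-stained nuclei to yield the apoptosis fraction. Doses for screening kept most cells viable, and cell lines differ markedly in resting and induced cleaved-PARP levels.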

Columns and labels:
Assay in all cases: cleaved PARP positive nuclei fraction relative to DMSO control; melanoma cells; higher = more apoptosis
Details in all cases: library dose: low library concentration; 72 h
MZ2-MEL = tested on: MZ2-MEL
MeWo = tested on: MeWo
RPMI7951 = tested on: RPMI7951
RVH-421 = tested on: RVH-421
SkMel28 = tested on: SkMel28
SkMel30 = tested on: SkMel30
SkMel5 = tested on: SkMel5
UACC257 = tested on: UACC257
UACC62 = tested on: UACC62
SkMel2 = tested on: SkMel2

| Compound | cleaved PARP positive nuclei fraction (MZ2-MEL) | cleaved PARP positive nuclei fraction (MeWo) | cleaved PARP positive nuclei fraction (RPMI7951) | cleaved PARP positive nuclei fraction (RVH-421) | cleaved PARP positive nuclei fraction (SkMel28) | cleaved PARP positive nuclei fraction (SkMel30) | cleaved PARP positive nuclei fraction (SkMel5) | cleaved PARP positive nuclei fraction (UACC257) | cleaved PARP positive nuclei fraction (UACC62) | cleaved PARP positive nuclei fraction (SkMel2) |
| --- | --- | --- | --- | --- | --- | --- | --- | --- | --- | --- |
| C[C@]12O[C@H](C[C@]1(O)CO)n1c3ccccc3c3c4c(c5c6ccccc6n2c5c31)CNC4=O [Lestaurtinib] + CN(NC(=O)CC(=O)NN(C)C(=S)c1ccccc1)C(=S)c1ccccc1 [STA4783] (first compound 0.004 µM, partner dose 0.006 µM) | 176% | 108% | 67.7% | 162% | 74.2% | 70.1% | 170% | 84.3% | 123% |  |
| C[C@]12O[C@H](C[C@]1(O)CO)n1c3ccccc3c3c4c(c5c6ccccc6n2c5c31)CNC4=O [Lestaurtinib] + CC(C)(C)c1cnc(CSc2cnc(NC(=O)C3CCNCC3)s2)o1 [SNS-032] (first compound 0.004 µM, partner dose 0.01 µM) | 152% | 101% | 58.2% | 51.3% | 185% | 57.5% | 169% | 43.2% | 60.4% |  |
| Cn1cc(C2=C(c3cn(C4CCN(Cc5ccccn5)CC4)c4ccccc34)C(=O)NC2=O)c2ccccc21 [Enzastaurin] + C=C(c1ccc(C(=O)O)cc1)c1cc2c(cc1C)C(C)(C)CCC2(C)C [Bexarotene] (first compound 0.8 µM, partner dose 2 µM) | 59.3% | 477% | 111% | 134% | 104% | 107% |  |  | 75% | 150% |
| C/C(O)=C(\C#N)C(=O)Nc1cc(Br)ccc1Br + O=c1cc(-c2cccc3c2Sc2ccccc2S3)oc(N2CCOCC2)c1 [KU55933] (first compound 2 µM, partner dose 1 µM) | 146% | 62.1% | 42.7% | 106% | 77.6% | 41.4% | 52.5% | 224% | 76.8% |  |
| Cc1cc(Nc2cc(N3CCN(C)CC3)nc(Sc3ccc(NC(=O)C4CC4)cc3)n2)n[nH]1 [Tozasertib] + N.N.[Cl][Pt][Cl] [cisplatin] (first compound 0.006 µM, partner dose 1.6 µM) | 5300% | 129% | 153% | 147% | 167% | 80.5% |  |  | 67.5% | 129% |
| C/C(O)=C(\C#N)C(=O)Nc1cc(Br)ccc1Br + Cn1cc(/C=C2\C(=O)Nc3cccnc32)c2ccccc21 [GW441756] (first compound 2 µM, partner dose 0.4 µM) | 62.8% | 107% | 182% | 44% | 197% | 8.63% | 234% | 179% | 167% |  |
| Cn1cc(C2=C(c3cn(C4CCN(Cc5ccccn5)CC4)c4ccccc34)C(=O)NC2=O)c2ccccc21 [Enzastaurin] + C[As](C)SC[C@H](NC(=O)CC[C@H](N)C(=O)O)C(=O)NCC(=O)O [Darinaparsin] (first compound 0.8 µM, partner dose 0.4 µM) | 154% | 36.6% | 30.1% | 115% | 72.9% | 80.6% |  |  | 106% | 358% |
| Cc1cc(Nc2cc(N3CCN(C)CC3)nc(Sc3ccc(NC(=O)C4CC4)cc3)n2)n[nH]1 [Tozasertib] + Cn1cc(C2=C(c3cn(C4CCN(Cc5ccccn5)CC4)c4ccccc34)C(=O)NC2=O)c2ccccc21 [Enzastaurin] (first compound 0.006 µM, partner dose 0.8 µM) | 240% | 74.4% | 232% | 51.9% | 71.5% | 180% |  |  | 65.1% | 165% |
| CN(C)S(=O)(=O)c1ccc2c(c1)/C(=C/c1cc3c([nH]1)CCCC3)C(=O)N2 + O=C(Oc1ccc([N+](=O)[O-])cc1)N1CCC(C(O)(c2ccc3c(c2)OCO3)c2ccc3c(c2)OCO3)CC1 [JZL184] (first compound 0.4 µM, partner dose 1 µM) | 88% | 91% | 173% | 101% | 144% | 33.6% | 58.2% | 103% | 248% |  |
| C[C@]12O[C@H](C[C@]1(O)CO)n1c3ccccc3c3c4c(c5c6ccccc6n2c5c31)CNC4=O [Lestaurtinib] + C/C(O)=C(\C#N)C(=O)Nc1cc(Br)ccc1Br [LFM-A13] (first compound 0.004 µM, partner dose 2 µM) | 67.7% | 96% | 35.1% | 93.9% | 161% | 231% | 70.7% | 75.8% | 194% |  |
| C/C(O)=C(\C#N)C(=O)Nc1cc(Br)ccc1Br + CC(C)CCN1c2nc(Nc3cc(F)c(O)c(F)c3)ncc2N(C)C(=O)C1C [BID1870] (first compound 2 µM, partner dose 0.2 µM) | 74.3% | 69% | 155% | 80.1% | 74.7% | 160% | 152% | 131% | 90% |  |
| CN(c1ncccc1CNc1nc(Nc2ccc3c(c2)CC(=O)N3)ncc1C(F)(F)F)S(C)(=O)=O + N.N.[Cl][Pt][Cl] [cisplatin] (first compound 0.08 µM, partner dose 1.6 µM) | 35.9% | 93% | 117% | 55.6% | 97.4% | 96.3% |  |  | 95.7% | 109% |
| C#Cc1cccc(Nc2ncnc3cc(OCCOC)c(OCCOC)cc23)c1 [erlotinib] + O=C(Oc1ccc([N+](=O)[O-])cc1)N1CCC(C(O)(c2ccc3c(c2)OCO3)c2ccc3c(c2)OCO3)CC1 [JZL184] (first compound 0.8 µM, partner dose 1 µM) | 184% | 107% | 85.6% | 144% | 192% | 69.8% | 172% | 178% | 194% |  |
| N.N.[Cl][Pt][Cl] [cisplatin] + CC(=O)c1c(C)c2cnc(Nc3ccc(N4CCNCC4)cn3)nc2n(C2CCCC2)c1=O [palbociclib] (first compound 1.6 µM, partner dose 0.04 µM) | 380% | 141% | 71.9% | 71.4% | 87.2% | 146% |  |  | 113% | 158% |
| COc1ccc(-c2ccc3c(N4CCOCC4)nc(N4C[C@@H](C)O[C@@H](C)C4)nc3n2)cc1CO + C/C(O)=C(\C#N)C(=O)Nc1cc(Br)ccc1Br [LFM-A13] (first compound 0.02 µM, partner dose 2 µM) | 154% | 29.4% | 48.3% | 221% | 191% | 23.3% | 109% | 83.3% | 171% |  |
| Cn1nnc2c(C(N)=O)ncn2c1=O [temozolomide] + C/C(O)=C(\C#N)C(=O)Nc1cc(Br)ccc1Br [LFM-A13] (first compound 2 µM, partner dose 2 µM) | 99% | 101% | 267% | 75.1% | 34.6% | 33.1% | 30.3% | 96.8% | 90.6% |  |
| C[C@]12O[C@H](C[C@]1(O)CO)n1c3ccccc3c3c4c(c5c6ccccc6n2c5c31)CNC4=O [Lestaurtinib] + Oc1nc(-c2ccc(C(F)(F)F)cc2)nc2c1CSCC2 [XAV939] (first compound 0.004 µM, partner dose 2 µM) | 102% | 95.4% | 52.3% | 248% | 169% | 178% | 88.1% | 88.9% | 90.3% |  |
| C[As](C)SC[C@H](NC(=O)CC[C@H](N)C(=O)O)C(=O)NCC(=O)O [Darinaparsin] + O=S(=O)(c1ccccc1)N(CC(F)(F)F)c1ccc(C(O)(C(F)(F)F)C(F)(F)F)cc1 [T0901317] (first compound 0.4 µM, partner dose 1.4 µM) | 44.2% | 222% | 69.2% | 101% | 166% | 54.3% | 131% | 62.3% | 248% |  |
| Cc1cc([N+](=O)[O-])ccc1NS(=O)(=O)c1cc(Cl)ccc1Cl + O=C(Oc1ccc([N+](=O)[O-])cc1)N1CCC(C(O)(c2ccc3c(c2)OCO3)c2ccc3c(c2)OCO3)CC1 [JZL184] (first compound 1 µM, partner dose 1 µM) | 144% | 38% | 122% | 370% | 138% | 37.4% | 79.1% | 182% | 163% |  |
| COc1ccc(COc2ccc(Cc3cnc(N)nc3N)cc2OC)cc1 + C/C(O)=C(\C#N)C(=O)Nc1cc(Br)ccc1Br [LFM-A13] (first compound 1 µM, partner dose 2 µM) | 181% | 103% | 41.2% | 39.9% | 96.5% | 57.6% | 153% | 97.1% | 44.8% |  |
| O=C(O)c1ccc(-c2c[nH]c3ncc(-c4ccccc4)cc23)cc1C1CCCC1 + Cc1cc(SCc2sc(-c3ccc(C(F)(F)F)c(F)c3)nc2C)ccc1OCC(=O)O [GW0742] (first compound 0.16 µM, partner dose 2 µM) | 156% | 66% | 90.9% | 74.5% | 355% | 45.9% | 64.3% | 145% | 171% |  |
| C[As](C)SC[C@H](NC(=O)CC[C@H](N)C(=O)O)C(=O)NCC(=O)O [Darinaparsin] + N#Cc1c(O)c2c(-c3ccc(-c4ccccc4O)cc3)csc2[nH]c1=O [A769662] (first compound 0.4 µM, partner dose 2 µM) | 118% | 43.9% | 105% | 170% | 88.3% | 28.9% | 95.3% | 97.3% | 232% |  |
| COc1ccc2c(c1)CCC1C2CCC2(C)C(NCCCCCCN3C(=O)C=CC3=O)CCC12 (stereo not given) + Cc1cc(SCc2sc(-c3ccc(C(F)(F)F)c(F)c3)nc2C)ccc1OCC(=O)O [GW0742] (first compound 0.4 µM, partner dose 2 µM) | 131% | 43.1% | 44.5% | 108% | 59.1% | 84.8% | 44.1% | 53.4% | 64.6% |  |
| O=C(CCCCCCC(=O)Nc1ccccc1)NO [vorinostat] + Cc1cc(SCc2sc(-c3ccc(C(F)(F)F)c(F)c3)nc2C)ccc1OCC(=O)O [GW0742] (first compound 0.08 µM, partner dose 2 µM) | 67.8% | 24.3% | 24.5% | 12.1% | 352% | 12.5% | 82.3% | 101% | 80.1% |  |

Part of the list above, tab-delimited:
Compound	cleaved PARP positive nuclei fraction (MZ2-MEL)	cleaved PARP positive nuclei fraction (MeWo)	cleaved PARP positive nuclei fraction (RPMI7951)	cleaved PARP positive nuclei fraction (RVH-421)	cleaved PARP positive nuclei fraction (SkMel28)	cleaved PARP positive nuclei fraction (SkMel30)	cleaved PARP positive nuclei fraction (SkMel5)	cleaved PARP positive nuclei fraction (UACC257)	cleaved PARP positive nuclei fraction (UACC62)	cleaved PARP positive nuclei fraction (SkMel2)
CN(c1ncccc1CNc1nc(Nc2ccc3c(c2)CC(=O)N3)ncc1C(F)(F)F)S(C)(=O)=O + N.N.[Cl][Pt][Cl] [cisplatin] (first compound 0.08 µM, partner dose 1.6 µM)	35.9%	93%	117%	55.6%	97.4%	96.3%			95.7%	109%
C#Cc1cccc(Nc2ncnc3cc(OCCOC)c(OCCOC)cc23)c1 [erlotinib] + O=C(Oc1ccc([N+](=O)[O-])cc1)N1CCC(C(O)(c2ccc3c(c2)OCO3)c2ccc3c(c2)OCO3)CC1 [JZL184] (first compound 0.8 µM, partner dose 1 µM)	184%	107%	85.6%	144%	192%	69.8%	172%	178%	194%	
